Assay results reported in US20240336691A1 (PROMETHEUS BIOSCIENCES, published 2024).
Numbering of substitutions follows the chain as printed. No constants are given. Whether binding was seen depends on the method and setting. Some results given as binding are weak or reduced against the parent protein; the word gives no strength. One block for each binder: values may come before it.

Target: T1, DR3 receptor on human TF-1 cells (human) (UniProt Q93038)
T1 sequence (looked up): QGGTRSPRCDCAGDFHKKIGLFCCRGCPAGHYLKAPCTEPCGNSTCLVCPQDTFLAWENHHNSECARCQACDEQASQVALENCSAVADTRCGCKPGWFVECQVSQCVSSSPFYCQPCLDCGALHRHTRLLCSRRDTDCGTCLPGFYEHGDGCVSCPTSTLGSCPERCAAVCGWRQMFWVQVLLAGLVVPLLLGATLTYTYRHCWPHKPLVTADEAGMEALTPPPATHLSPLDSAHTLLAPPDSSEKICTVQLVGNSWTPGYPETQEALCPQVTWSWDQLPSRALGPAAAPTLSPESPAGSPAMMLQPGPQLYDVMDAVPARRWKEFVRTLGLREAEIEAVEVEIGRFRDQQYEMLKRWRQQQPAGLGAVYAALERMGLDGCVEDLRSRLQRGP
Assay: TF-1 cell caspase activation assay

- binding: binds
B1: human recombinant TL1A protein (ligand, UniProt O95150 72-251, looked up)
chain: LKGQEFAPSHQQVYAPLRADGDKPRAHLTVVRQTPTQHFKNQFPALHWEHELGLAFTKNRMNYTNKFLLIPESGDYFIYSQVTFRGMTSECSEIRQAGRPNKPDSITVVITKVTDSYPEPTQLLMGTKSVCEVGSNWFQPIYLGAMFSLQEGDKLMVNVSDISLVDYTKEDKTFFGAFLL

- binding: binds
B2: cynomolgus monkey recombinant TL1A protein (ligand)
chain: B1 chain with F39L, I78V
